Library screen at single concentrations

Sequences of proteins named here, by UniProt entry; tags and fusion partners are left off. Residues count along the entry.
UniProt A4I591, 1-473: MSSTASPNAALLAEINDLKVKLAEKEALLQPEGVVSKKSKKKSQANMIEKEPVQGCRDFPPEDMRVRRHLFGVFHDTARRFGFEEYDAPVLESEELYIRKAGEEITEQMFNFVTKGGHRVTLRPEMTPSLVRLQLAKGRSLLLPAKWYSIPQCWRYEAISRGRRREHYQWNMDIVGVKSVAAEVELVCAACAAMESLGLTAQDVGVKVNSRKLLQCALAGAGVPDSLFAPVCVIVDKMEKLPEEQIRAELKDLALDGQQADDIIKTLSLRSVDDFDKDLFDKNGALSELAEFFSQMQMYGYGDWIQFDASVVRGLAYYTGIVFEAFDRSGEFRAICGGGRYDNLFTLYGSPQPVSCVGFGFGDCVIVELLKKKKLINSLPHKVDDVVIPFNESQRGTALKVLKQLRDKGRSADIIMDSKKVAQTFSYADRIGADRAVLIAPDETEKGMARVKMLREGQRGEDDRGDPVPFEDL
UniProt Q4DA54, 1-478: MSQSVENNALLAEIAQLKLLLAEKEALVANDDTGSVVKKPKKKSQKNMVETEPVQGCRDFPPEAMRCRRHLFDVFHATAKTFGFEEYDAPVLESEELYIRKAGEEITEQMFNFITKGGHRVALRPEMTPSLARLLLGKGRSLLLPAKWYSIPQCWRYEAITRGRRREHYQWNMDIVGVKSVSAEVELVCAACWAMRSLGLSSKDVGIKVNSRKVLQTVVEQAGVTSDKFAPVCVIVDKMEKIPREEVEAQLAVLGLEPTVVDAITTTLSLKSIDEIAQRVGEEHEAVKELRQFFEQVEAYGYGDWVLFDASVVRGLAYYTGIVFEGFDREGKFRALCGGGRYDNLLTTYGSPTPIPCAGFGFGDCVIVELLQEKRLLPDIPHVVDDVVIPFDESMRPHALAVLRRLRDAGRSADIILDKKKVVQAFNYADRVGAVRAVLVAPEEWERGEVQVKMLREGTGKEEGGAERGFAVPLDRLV
UniProt Q8IDJ8, 1-583: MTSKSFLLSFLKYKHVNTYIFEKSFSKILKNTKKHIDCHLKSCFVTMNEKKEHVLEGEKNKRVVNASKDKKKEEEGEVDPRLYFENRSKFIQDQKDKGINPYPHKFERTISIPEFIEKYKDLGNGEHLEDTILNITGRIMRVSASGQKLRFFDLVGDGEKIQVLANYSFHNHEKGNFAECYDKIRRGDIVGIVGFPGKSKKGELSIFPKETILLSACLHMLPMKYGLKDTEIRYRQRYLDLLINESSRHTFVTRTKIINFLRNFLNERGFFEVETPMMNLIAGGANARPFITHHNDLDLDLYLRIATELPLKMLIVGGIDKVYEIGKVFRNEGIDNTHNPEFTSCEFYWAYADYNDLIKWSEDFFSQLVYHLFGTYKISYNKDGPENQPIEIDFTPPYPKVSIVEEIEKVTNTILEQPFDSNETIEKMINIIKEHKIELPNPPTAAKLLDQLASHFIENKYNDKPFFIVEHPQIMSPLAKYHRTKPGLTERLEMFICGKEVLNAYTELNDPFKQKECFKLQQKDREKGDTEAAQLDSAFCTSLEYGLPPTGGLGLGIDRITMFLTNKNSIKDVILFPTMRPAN

The values are deposited in ChEMBL (CHEMBL3988442, “University of Dundee, Small-Polar-MMV Screening Library” (2021)).

A: 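Enzyme assay of histidyl-tRNA synthetase; the read-out is not stated. Target: Histidine-tRNA ligase, Leishmania infantum (UniProt A4I591). Compounds at 30 µM. Direction is inferred from retests: higher values go with stronger inhibition. The assay is labelled LdHisRS but filed under L. infantum. Size under these conditions: about 69,000 compounds, about 410 of them at 50% or above in at least one test.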
B: 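Histidine-tRNA ligase, Trypanosoma cruzi CL Brener (UniProt Q4DA54). Enzyme assay of histidyl-tRNA synthetase; the read-out is not stated. Tested at 30 µM. Higher reads as stronger inhibition (inferred: compounds with an IC50 in retests scored well above the rest). About 69,000 compounds were tested under these conditions; 0.045% (about 31) showed 50% or more at least once.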
C: 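Enzyme assay of the cytosolic lysyl-tRNA synthetase in 384-well plates, read by luminescence. Target: Lysine-tRNA ligase, Plasmodium falciparum 3D7 (UniProt Q8IDJ8). Concentration: 30 µM. Higher reads as stronger inhibition, judged from the few compounds that gave an IC50. About 69,000 compounds were tested under these conditions; 0.071% (about 49) showed 50% or more at least once.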
D: 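Cell assay of Leishmania donovani living inside macrophages; the read-out is not stated. Tested at 30 µM. Direction is inferred from retests: higher values go with stronger inhibition. About 69,000 compounds were tested under these conditions; 1.5% (about 1,000) showed 50% or more at least once.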

The filed quantity is “Percent Effect” (%). The record does not define 0% and 100%; most values in the screen are far below 50% and negative numbers occur (in some assays of this library far below -100). This is an unselected part of the compounds tested. Two or more numbers in one place are separate tests of the same structure; such repeats can differ widely. A dash means the value is not listed here; it may have been measured.

- C[C@@H]1CN(C(=O)Nc2cccc(OC(F)F)c2)CC(C(N)=O)O1 (some centres unmarked) | A: 10.92%; B: 1.961%; C: 3.656%; D: 10.53%
- CC(C)S(=O)(=O)N1CCC(c2cc3n(n2)[C@@H](C(F)(F)F)C[C@@H](C)N3)CC1 | A: -10%; B: 2.247%; C: 2.868%; D: 15.84%
- NC(=O)Cn1ccnc1C1CCCN(Cc2cccc(Cl)c2F)C1 (centres unmarked) | A: 18.25%; B: 8.235%; C: 0.4021%; D: 18.27%
- CN1CC[C@H]2CN(C(=O)c3csc(Cc4ccccc4)n3)C[C@H]21 | A: 2.857%; B: 8.247%; C: 5.859%
- O=C(Cn1cc(C(=O)O)ccc1=O)Nc1ccc(F)cc1Cl | A: 11.65%; B: -1.639%; C: 2.764%; D: -0.5954%
- Cc1cnn(Cc2cc(F)ccc2F)c1NC(=O)C1CCOCC1 | A: 4.839%; B: 1.149%; C: 2.621%; D: -0.2607%
- O=C(CN1CCC(c2ccccc2)C1)NCC(F)(F)F (centres unmarked) | A: 14.29%; B: 7.101%; C: 0.6497%; D: 28.54%
- COCCOCCNC(=O)c1ccc(N2CCC(C)=N2)cc1 | A: 6.25%; B: -1.266%; C: -0.2138%; D: -25.49%
- COc1ccc(OC)c(C(O)CN2CCN(c3cccc(C)c3)CC2)c1 (centres unmarked) | A: 20.22%; B: 11.56%; C: -2.384%; D: 16.7%
- [H][C@@]12CS(=O)(=O)C[C@]1([H])N(C(=O)c1ccc(COC)o1)CCN2CC1CC1 | D: -8.657%
- CCNC(=O)N(C)C(c1ccccc1)c1ccccn1 (centres unmarked) | A: 7.692%; B: -2.857%; C: 0.2075%; D: 22.98%
- Cn1cc(C2CC3(CCN(C(=O)c4cccs4)CC3)NC2=O)cn1 (centres unmarked) | A: 15.04%; B: 4.301%; C: -1.119%; D: 29.44% & -2.319%
- Cc1nc(C2CCCN2CC(=O)NCCOc2ccc(F)cc2)no1 (centres unmarked) | A: 14.68%; B: 2.941%; C: -2.295%; D: -14.37%
- CC(=O)Nc1ccc(CC(=O)N2CC(S(=O)(=O)C3CCCCC3)C2)cc1 | A: 5.217%; B: 0%; C: 0.2603%; D: 28.8% & 3.666%
- Cc1noc(C)c1CN1CCC2(CC1)CCN(C(=O)c1cscn1)C2.O=C(O)C(F)(F)F | D: -3.526% & 10.18%
- CCc1ncnc2c1CCN(Cc1ccc3c(c1)OCO3)CC2.O=C(O)C(F)(F)F | D: -15.49%
- Cc1oc(-c2ccccc2)nc1C(=O)NC1=NCCS1 | A: 15.52%; B: 2.618%; C: 2.73%; D: 21.88%
- Cc1noc(CNc2cc3c(cc2Cl)NC(=O)CO3)n1 | A: 11.67%; B: 0.8696%; C: 8.987%; D: 5.384%
- COc1cccc(C(CO)NC(=O)NC(C)C)c1 (centres unmarked) | A: 15%; B: -4.545%; C: -1.856%; D: 1.39%
- Cc1cnc(Nc2cccc(C3CCCN3Cc3cn(C)nc3C)n2)s1 (centres unmarked) | A: 9.79%; B: 2.26%; C: 1.18%; D: 49.88%
- Cn1cc(CN2CCc3ncnc(N4CCOCC4)c3CC2)cn1.O=C(O)C(F)(F)F.O=C(O)C(F)(F)F.O=C(O)C(F)(F)F | D: -30.47% & 9.884%
- CCN1CC(=O)NCC12CCN(C(=O)c1ccno1)C2.O=C(O)C(F)(F)F (centres unmarked) | D: -6.57%
- CN1CC2(CNCCN(C(=O)Nc3ccccc3)C2)CC1=O (centres unmarked) | A: 19.42%; B: 10.68%; C: 3.717%
- CC(=O)N1CCCC1c1nnn2cc(Nc3ccccc3)ccc12.O=C(O)C(F)(F)F (centres unmarked) | D: -6.242% & -4.537%
- NC(=O)c1cccc(CC2CCN(C(=O)Cn3cnnn3)C2)c1 (centres unmarked) | A: 13.6%; B: 4.523%; C: 0.3064%; D: -5.957%
- CNCc1n[nH]c(=O)n1-c1ccccc1Oc1ccccc1 | A: 4.444%; B: 4.762%; C: 3.758%; D: 11.99%

The last 3 entries again:

| Compound | A | B | C | D |
|---|---|---|---|---|
| `CC(=O)N1CCCC1c1nnn2cc(Nc3ccccc3)ccc12.O=C(O)C(F)(F)F` (centres unmarked) | - | - | - | -6.242 & -4.537 |
| `NC(=O)c1cccc(CC2CCN(C(=O)Cn3cnnn3)C2)c1` (centres unmarked) | 13.6 | 4.523 | 0.3064 | -5.957 |
| `CNCc1n[nH]c(=O)n1-c1ccccc1Oc1ccccc1` | 4.444 | 4.762 | 3.758 | 11.99 |